PubChem BioAssay AID540256 (National Center for Advancing Translational Sciences (NCATS), 2011)
Out of some 300,000 compounds screened, about 3,700 (1.2%) were called active. Inconclusive means that the source gave no clear call. Such entries were picked first, then a sample of the others. The call rests on the fitted dose curve; tested in HEK293 cells. Potencies beside an inconclusive call are fits to weak or partial responses and may not hold up.

Assay: qHTS for Inhibitors of binding or entry into cells for Lassa Virus; further: nearly all actives have a fitted effect of over 50% in size
Conditions: Lassa virus pseudotype entry inhibition, cell reporter; activity change, negative = inhibition: at 37.9 µM (top of the series) unless noted
On the % scale 0 is the no-effect control and ±100 the full control effect; potency means the concentration at half of the fitted maximal effect.

| Compound | Potency | activity change, negative = inhibition |
| --- | --- | --- |
| O=c1c2cc([N+](=O)[O-])ccc2nc2n1CCCC2 | inconclusive: 7.08 µM [inhibitor, full curve, poor fit] |  |
| CC(C)n1nccc1NC(=O)COC(=O)c1ccc(NC(N)=O)cc1 |  | inactive: -1.59% [at 46.1 µM] |
| O=C(Cn1cc(SCc2ccc(F)cc2)c2ccccc21)N1CCCC1 | inconclusive: 22.4 µM [inhibitor, single point] |  |
| COc1ccc(C2=CC(c3ccco3)n3ncnc3N2)cc1 (stereo not drawn) |  | inactive: -8.08% [at 46.1 µM] |
| CCN(CC)S(=O)(=O)c1ccc2c(c1)c(=O)c(C(=O)N1CCN(c3cc(C)ccc3C)CC1)cn2C |  | inactive: -4.35% [at 46.1 µM] |
| Cc1nc(NC(=O)c2ccccc2)sc1-c1csc(N)n1 |  | inactive: 3.59% |
| COc1ccc(S(=O)(=O)N2CCC(c3nnnn3-c3ccccc3)CC2)cc1OC | inconclusive: 15.8 µM [inhibitor, single point] |  |
| O=C(c1cc(-c2ccc(O)cc2)on1)N1CCOCC1 | inconclusive: 35.5 µM [inhibitor, single point] |  |
| Cc1ccc(C(=O)Nc2cccc(C(=O)NCc3ccco3)c2)cc1 | inconclusive: 3.55 µM [inhibitor, partial curve, poor fit] |  |
| COC(=O)c1ccc(OCc2cc(=O)n3ccsc3n2)cc1 | inconclusive: 0.316 µM [inhibitor, partial curve, poor fit] |  |
| O=C(O)c1ccc(Oc2ccc(C(F)(F)F)cn2)cc1 |  | inactive: 14% |
| COc1ccc(CNC(=O)C(c2ccc(C)o2)N(C(=O)c2csnn2)c2ccc(C(C)C)cc2)cc1 (stereo not drawn) | inconclusive: 17.8 µM [inhibitor, partial curve, poor fit] |  |
| CC(NC(=O)c1ccco1)C(=O)N1CCN(C(c2ccccc2)c2ccccc2)CC1 (stereo not drawn) |  | inactive: -14% |
| COc1ccc(NC(=S)NCCSc2ccc(Cl)cc2)c(OC)c1 | inconclusive: 15.8 µM [inhibitor, partial curve, poor fit] |  |
| Cc1ccc[n+](CC(=O)c2ccc(NC(=O)c3ccccc3)cc2)c1 |  | inactive: 15.8% |
| COc1ccc(-c2coc3cc(OC)cc(O)c3c2=O)cc1 | inconclusive: 1.26 µM [activator, single point] |  |
| O=C(COC(=O)CNC(=O)c1ccco1)Nc1ccc(Cl)cn1 |  | inactive: -18.8% |
| CNS(=O)(=O)c1cccc(C(=O)OCc2cc(C(C)=O)ccc2OC)c1 |  | inactive: -23.4% |
| C=CCN(c1ccccc1)S(=O)(=O)c1cccc(C(=O)O)c1 | inconclusive: 2.51 µM [activator, partial curve] |  |
| O=C(Oc1cncc(Cl)c1)c1sccc1Cl | inconclusive: 12.6 µM [activator, partial curve, poor fit] |  |
| Cc1nn(-c2ccc(Cl)nn2)c(=O)c2ccccc12 |  | inactive: 24.5% |
| CCc1nnc(NC(=O)c2nc(SCc3ccc(F)cc3)ncc2Cl)s1 |  | inactive: -3.73% [at 46.1 µM] |
| CCc1cccc(NC(=O)CSc2nccn2C)c1 | inconclusive: 0.126 µM [activator, full curve, poor fit] |  |

| Compound | Potency | activity change, negative = inhibition |
| --- | --- | --- |
| CCCOc1nc(C)cc(COC)c1C(N)=O | inconclusive: 11.2 µM [activator, partial curve] |  |
| CC(C)C[C@H]1C(=O)N2CCC[C@H]2[C@]2(O)O[C@](NC(=O)[C@@H]3C=C4c5cccc6[nH]c(Br)c(c56)C[C@H]4N(C)C3)(C(C)C)C(=O)N12 | inconclusive: 16.4 µM [inhibitor, single point] |  |
| O=S(=O)(Cc1ccccc1)Nc1cccc(F)c1 | inconclusive: 1 µM [activator, full curve, poor fit] |  |
| Cc1ccc(N(CC(=O)N/N=C/c2cc(C)n(-c3ccccc3C)c2C)S(C)(=O)=O)cc1 | inconclusive: 20.6 µM [inhibitor, single point] |  |
| CS(=O)(=O)Nc1ccc(C(=O)Nc2ccc3c(c2)OCO3)cc1 | inconclusive: 31.6 µM [inhibitor, single point] |  |
| Cn1ccc2c(OCC(=O)NCc3ccc(F)cc3)cccc2c1=O | inconclusive: 3.98 µM [inhibitor, full curve] |  |
| Cc1onc(-c2ccccc2Cl)c1C(=O)N1CCN(C(=O)c2ccco2)CC1 | inconclusive: 11.2 µM [activator, partial curve, poor fit] |  |
| COc1ccc2[nH]c(N=Nc3ccccc3C)c(O)c2c1 | inconclusive: 1 µM [inhibitor, partial curve, poor fit] |  |
| CCc1nc(SCc2nc3ccccc3[nH]2)c2oc3ccccc3c2n1 |  | inactive: -7.8% |
| Cc1cccc(NC(=O)Cn2cc(C(=O)c3ccccc3)c3ccccc32)c1 | inconclusive: 22.4 µM [inhibitor, single point] |  |
| COc1ccc(C(c2nnnn2CC2CCCO2)N2CCC(C(N)=O)CC2)cc1 (stereo not drawn) |  | inactive: -0.0832% |
| O=C(N/N=C/c1ccccc1OC(F)F)c1cc(-c2ccncc2)nc2ccccc12 | inconclusive: 0.562 µM [inhibitor, full curve, poor fit] |  |
| O=C(CCNS(=O)(=O)/C=C/c1ccccc1)NCCc1c[nH]c2ccccc12 | inconclusive: 14.1 µM [inhibitor, partial curve, poor fit] |  |
| Cc1cc(C(=O)CSc2ccc(Cl)cc2)cc(C)c1OC(=S)N(C)C |  | inactive: -7.8% |
| O=C(c1ccc(Br)cc1)c1cn[nH]c1-c1ccccc1O | inconclusive: 35.5 µM [activator, partial curve, poor fit] |  |
| O=C(/C=C/Nc1ccccc1Oc1ccccc1)c1ccco1 | inconclusive: 0.562 µM [inhibitor, full curve, poor fit] |  |
| O=C(N/N=C/C(Br)=C\c1ccccc1)c1n[nH]c2c1CCC2 | inconclusive: 0.116 µM [inhibitor, full curve, poor fit] |  |
| O=C(Nc1ccc2ccccc2c1)c1cn(-c2ccccc2)nc1-c1cccs1 | inconclusive: 25.9 µM [inhibitor, single point] |  |
| O=C(CCc1ccccc1)N1CCN(c2ccc(Cl)cc2)CC1 | inconclusive: 0.146 µM [inhibitor, full curve, poor fit] |  |
| O=C(COC(=O)C1=NN(c2ccccc2)C(=O)CC1)Nc1nc(-c2ccc(F)cc2)cs1 | inconclusive: 4.47 µM [inhibitor, partial curve, poor fit] |  |
| O=C(Nc1ccccc1-c1nnn(CC(=O)N2CCN(c3ccccc3)CC2)n1)c1cccs1 | inconclusive: 14.6 µM [inhibitor, partial curve, poor fit] |  |
| CCn1cc(CNC(=O)c2ccc(OC3CCN(Cc4ccccn4)CC3)cc2)cn1 | inconclusive: 8.91 µM [inhibitor, partial curve, poor fit] |  |
| Cc1cc(C)nc(SCc2ccc(C(=O)NNC(=O)Nc3cccc(Cl)c3)cc2)n1 | active: 11.2 µM |  |

Molecules shown so far containing bromine (3):

| Compound | Potency | activity change, negative = inhibition |
| --- | --- | --- |
| CC(C)C[C@H]1C(=O)N2CCC[C@H]2[C@]2(O)O[C@](NC(=O)[C@@H]3C=C4c5cccc6[nH]c(Br)c(c56)C[C@H]4N(C)C3)(C(C)C)C(=O)N12 | inconclusive: 16.4 µM [inhibitor, single point] |  |
| O=C(c1ccc(Br)cc1)c1cn[nH]c1-c1ccccc1O | inconclusive: 35.5 µM [activator, partial curve, poor fit] |  |
| O=C(N/N=C/C(Br)=C\c1ccccc1)c1n[nH]c2c1CCC2 | inconclusive: 0.116 µM [inhibitor, full curve, poor fit] |  |

(continued)

| Compound | Potency | activity change, negative = inhibition |
| --- | --- | --- |
| CCCCSc1ccc2nc(-c3ccc(C#N)cc3)cn2c1 | inconclusive: 14.1 µM [inhibitor, single point] |  |
| OCCN1CCN(C(=S)c2ccc(-c3ccccc3)cc2)CC1 | inconclusive: 7.08 µM [inhibitor, partial curve, poor fit] |  |
| CCOCCCN(C)C1CCN(C(=O)c2oc3ccccc3c2NC(=O)Cc2ccc(F)cc2)CC1 | inconclusive: 35.5 µM [inhibitor, single point] |  |
| CCOc1ccc2nc(NC(=O)CN3CCOCC3)sc2c1 |  | inactive: 1.73% |
| COc1ccc(CNC(=O)c2ccc3c(=O)n(-c4ccccc4)c(=O)[nH]c3c2)cc1 | inconclusive: 5.62 µM [inhibitor, single point] |  |
| CCCCCOc1ccccc1Cn1c(=O)oc2ccc(C)cc21 | inconclusive: 3.16 µM [activator, partial curve, poor fit] |  |
| Cc1cc(N2C(=O)C3CCC(c4ccccc4)CC3C2=O)no1 (stereo not drawn) | inconclusive: 35.5 µM [activator, single point] |  |
| COC(=O)c1sc2ccccc2c1-n1cccc1C(=O)C(=O)Nc1ccc(OC)cc1 | inconclusive: 10 µM [inhibitor, partial curve, poor fit] |  |
| COc1ccc(N2CCN(CCCNC(=O)C3CCC(CNc4nc(=S)[nH]c5ccccc45)CC3)CC2)cc1 (stereo not drawn) | inconclusive: 1.26 µM [inhibitor, partial curve, poor fit] |  |
| CC(C)N(C(=O)CSc1nn2c(=O)c(C(C)(C)C)nnc2s1)c1ccccc1 | inconclusive: 1.41 µM [activator, partial curve, poor fit] |  |
| Cc1ccc(NC(NC(=O)c2cccnc2)C(Cl)(Cl)Cl)cc1 (stereo not drawn) |  | inactive: -0.245% |
| COC(=O)c1nnc(N[C@@H](Cc2c[nH]c3ccccc23)C(=O)OC)nc1C(=O)OC | inconclusive: 0.841 µM [activator, single point] |  |
| CCOC(=O)c1cc(-c2ccccc2)n(CC(=O)Nc2cc(Cl)c(OC)cc2OC)c1C |  | inactive: 4.18% [at 46.1 µM] |
| Cc1cc(NC(=O)c2ccc(Br)o2)ccc1NC(=O)c1ccco1 |  | inactive: 19.7% [at 46.1 µM] |
| Cc1ccnc2c1ccc1cccnc12 | inconclusive: 2.82 µM [inhibitor, single point] |  |
| COCCn1c(SCC(=O)N2CCCC2)nnc1-c1ccoc1C |  | inactive: 3.04% |
| O=C(COc1ccccc1Cl)Nc1ccc2c(c1)OCCO2 |  | inactive: -13.1% |
| COc1cccc(/C=C/C(=O)OCC(=O)Nc2cc(C(F)(F)F)ccc2Cl)c1 | inconclusive: 7.08 µM [activator, partial curve, poor fit] |  |
| Cc1cccc(Cn2c(CNC(=O)c3ccccc3)nc3ccccc32)c1 |  | inactive: -8.78% [at 46.1 µM] |
| CCCCN(CCCNC(=O)c1c(C)cc(=O)oc1C)c1ccccc1 |  | inactive: -0.477% |
| COCCN(C(=O)CSc1ncn[nH]1)c1c(N)n(Cc2ccccc2)c(=O)[nH]c1=O | inconclusive: 22.4 µM [activator, single point] |  |
| CCc1cc2c(=O)c(-c3ccc4c(c3)OCCO4)coc2cc1OS(C)(=O)=O | inconclusive: 3.55 µM [inhibitor, partial curve, poor fit] |  |
